The record followed here is the supplement of paper PMC7877785.

± gives the uncertainty stated by the source. Many entries were measured with a wide error.

The data set is described as follows: self-splicing fitness, log relative to wild type (ln ratio); higher = more splicing; Tetrahymena group I intron in knt gene, E. coli kanamycin selection, DiMSum; sequences stand for … in CUCUCU…GGAGGGAAAAGUUAUCAGGCAUGCACCUGGUAGCUAGUCUUUAAACCAAUAGAUUGCAUCGGUUUAAAAGGCAAGACCGUCAAAUUGCGGGAAAGGGGUCAACAGCCGUUCAGUACCAAGUCUCAGGGGAAACUUUGAGAUGGCCUUGCAAAGGGUAUGGUAAUAAGCUGACGGACAUGGUCCUAACCACGCAGCCAAGUCCUAAGUCAACAGAUCUUCUGUUGAUAUGGAUGCAGUUCACAGACUAAAUGUCGGUCGGGGAAGAUGUAUUCUUCUCAUAAGAUAUAGUCGGACCUCUCCUUAAUGGGAGCUAGCGGAUGAAGUGAUGCAACACUGGAGCCGCUGGGAACUAAUUUGUAUGCGAAAGUAUAUUGAUUAGUUUUGGAGUACUCGUGGUCG
The procedure, abridged:
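A randomised library covering all eight P1ex-region intron nucleotides was built with the intron in the knt kanamycin-resistance gene on pET-22b(+) and held in E. coli BL21(DE3). Cells were grown overnight at 37°C or 30°C on LB agar, with or without 25 μg/mL kanamycin, plus 100 μg/mL carbenicillin, 50 μM IPTG and 0.2% rhamnose, and pooled colonies were amplicon-sequenced on an Illumina HiSeq 2500. DiMSum fitness is the error-weighted combination of wild-type-normalised replicate fold changes, kanamycin versus none.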

Regarding AACUAGCAAUAUUACGGGUA, the “self-splicing fitness (ln)” value is, setting by setting: (30 °C) -0.761 ± 0.072; (37 °C) -0.0817 ± 0.07.
As to CCCUAGCAAUAUUACGGCCU, the “self-splicing fitness (ln)” value (37 °C) is -3.49 ± 0.52.
With CUAUAGCAAUAUUACGAUAC, the “self-splicing fitness (ln)” value (30 °C) was -4.66 ± 1.
Consider CCAAAGCAAUAUUACGACGC, for which, for the setting “37 °C”, the “self-splicing fitness (ln)” value is -3.88 ± 0.59.
UUGGAGCAAUAUUACGGCGU: the “self-splicing fitness (ln)” value (30 °C) is -3.5 ± 0.6.
With AUGCAGCAAUAUUACGGGUU, the “self-splicing fitness (ln)” value is -1.98 ± 0.075 (30 °C) and -1.29 ± 0.096 (37 °C).
The corresponding values for ACGGAGCAAUAUUACGUACA are -2.48 ± 0.56 and -2.15 ± 0.64.
Consider AUUUAGCAAUAUUACGAGGG, for which the “self-splicing fitness (ln)” value (30 °C) is -3.96 ± 0.52.
Regarding AUGAAGCAAUAUUACGAAUC, the “self-splicing fitness (ln)” value (37 °C) is -2.95 ± 0.74.
UUGUAGCAAUAUUACGACAU: the “self-splicing fitness (ln)” value (30 °C) was -0.918 ± 0.015 and the “self-splicing fitness (ln)” value (37 °C) was -0.322 ± 0.034.
Take ACGGAGCAAUAUUACGAACA: where the note is “37 °C”, the “self-splicing fitness (ln)” value was -1.54 ± 1.2.
Same read-out and setting: the result for CGGGAGCAAUAUUACGCAUC reads -1.32 ± 0.54.
On the same count and under the same terms, the result for UCUGAGCAAUAUUACGUUGC reads -2.89 ± 0.75.
As to ACGGAGCAAUAUUACGUUGC, the “self-splicing fitness (ln)” value (30 °C) was -4.69 ± 0.73.
As to GGGGAGCAAUAUUACGGAUG, the “self-splicing fitness (ln)” value reads like this: (30 °C) -4.45 ± 0.6; (37 °C) -1.14 ± 0.56.
Take UGUUAGCAAUAUUACGGAGU: the “self-splicing fitness (ln)” value (30 °C) is -4.97 ± 0.58.
Regarding UGGGAGCAAUAUUACGGCUU, the “self-splicing fitness (ln)” value (30 °C) is -2.02 ± 1.2 and the “self-splicing fitness (ln)” value (37 °C) is -2.48 ± 0.77.
Regarding GGGCAGCAAUAUUACGAGCU, the “self-splicing fitness (ln)” value was -2.69 ± 0.22 (30 °C) and 0.481 ± 0.13 (37 °C).
Take CUGUAGCAAUAUUACGAAGA: the “self-splicing fitness (ln)” value (30 °C) was -4.67 ± 1.
In the case of UAUGAGCAAUAUUACGCAGC, the “self-splicing fitness (ln)” value (30 °C) was -2.49 ± 0.51.
With GAAUAGCAAUAUUACGACUC, the “self-splicing fitness (ln)” value (30 °C) is -0.601 ± 0.13 and the “self-splicing fitness (ln)” value (37 °C) is -1.34 ± 0.18.
In the case of GACCAGCAAUAUUACGGAAG, the “self-splicing fitness (ln)” value was -1.42 ± 0.08 (30 °C) and -0.75 ± 0.088 (37 °C).
GGAGAGCAAUAUUACGCGGC: the “self-splicing fitness (ln)” value (30 °C) was -0.524 ± 0.59.
As to CGGAAGCAAUAUUACGAAAC, the “self-splicing fitness (ln)” value reads like this: (30 °C) -3 ± 0.55; (37 °C) -1.29 ± 1.2.
The corresponding values for CUCUAGCAAUAUUACGGGCC are -4.05 ± 0.72 and -2.59 ± 0.62.
For the sequence CCGAAGCAAUAUUACGCCGG, the “self-splicing fitness (ln)” value (30 °C) was -4.5 ± 0.51.
Consider CAAGAGCAAUAUUACGCCAU, for which the “self-splicing fitness (ln)” value is -3.2 ± 0.23 (30 °C) and -2.02 ± 0.28 (37 °C).
For the sequence CCGGAGCAAUAUUACGACUC, where the note is “37 °C”, the “self-splicing fitness (ln)” value was -1.18 ± 0.79.
On to GUAGAGCAAUAUUACGAUAG, for which the “self-splicing fitness (ln)” value (30 °C) is -2.06 ± 0.15 and the “self-splicing fitness (ln)” value (37 °C) is -1.42 ± 0.14.
Take UUAGAGCAAUAUUACGAAUC: the “self-splicing fitness (ln)” value was -3.7 ± 1.1 (30 °C) and -0.19 ± 0.92 (37 °C).
Regarding GAUGAGCAAUAUUACGUUGU, the “self-splicing fitness (ln)” value (30 °C) was -3.53 ± 0.61.
Take UGGCAGCAAUAUUACGCUAC: the “self-splicing fitness (ln)” value (37 °C) is -2.54 ± 0.51.
Consider CAUAAGCAAUAUUACGGAAC, for which the “self-splicing fitness (ln)” value (30 °C) is -4.48 ± 0.51.
Same read-out and setting: the result for AUGCAGCAAUAUUACGGAAC reads -4.99 ± 0.58; that for AUGUAGCAAUAUUACGAGGC, -5.29 ± 1.
In the case of GGUGAGCAAUAUUACGCCUA, the “self-splicing fitness (ln)” value (37 °C) is -0.997 ± 0.5.
Consider AAACAGCAAUAUUACGUCAG, for which the “self-splicing fitness (ln)” value is, setting by setting: (30 °C) -3.36 ± 0.12; (37 °C) -2.41 ± 0.12.
As for GUUUAGCAAUAUUACGAAGA, the “self-splicing fitness (ln)” value (30 °C) was -3.51 ± 0.76.
UGCGAGCAAUAUUACGACCA: the “self-splicing fitness (ln)” value (37 °C) was -0.45 ± 0.53.
As for GUUCAGCAAUAUUACGCGGU, the “self-splicing fitness (ln)” value reads like this: (30 °C) -1.52 ± 0.11; (37 °C) -1.69 ± 0.14.
Turning to UACGAGCAAUAUUACGCUAG, where the note is “30 °C”, the “self-splicing fitness (ln)” value was -3.21 ± 0.53.
Take CUAUAGCAAUAUUACGGAGC: the “self-splicing fitness (ln)” value (30 °C) was -2.36 ± 0.82.
With UUGUAGCAAUAUUACGUCAC, the “self-splicing fitness (ln)” value (37 °C) was -2.17 ± 0.51.
UAGAAGCAAUAUUACGCUCC: the “self-splicing fitness (ln)” value reads like this: (30 °C) -1.54 ± 0.56; (37 °C) -2.29 ± 1.1.
As for GUUGAGCAAUAUUACGUGCC, under “37 °C”, the “self-splicing fitness (ln)” value was -2.32 ± 0.8.
For UCCGAGCAAUAUUACGUGUC, the “self-splicing fitness (ln)” value is, setting by setting: (30 °C) -4.2 ± 1; (37 °C) -2.64 ± 0.34.
GUGGAGCAAUAUUACGCAUA: the “self-splicing fitness (ln)” value (30 °C) is -2.88 ± 0.59.
The same measure, in the same setting: next, AAUAAGCAAUAUUACGUGCC: -0.624 ± 0.54.
Turning to GGGGAGCAAUAUUACGCUAC, the “self-splicing fitness (ln)” value was -2.94 ± 1.1 (30 °C) and -3.3 ± 1 (37 °C).
For UUUGAGCAAUAUUACGGCCC, the “self-splicing fitness (ln)” value (37 °C) came to 1.8 ± 0.53.
As to UGGCAGCAAUAUUACGCCCU, the “self-splicing fitness (ln)” value (37 °C) is -0.12 ± 0.74.
Take GGUAAGCAAUAUUACGCAUC: the “self-splicing fitness (ln)” value is -0.177 ± 0.65 (30 °C) and -1.98 ± 1.1 (37 °C).
For the sequence GGCGAGCAAUAUUACGGACC, the “self-splicing fitness (ln)” value (30 °C) was -2.14 ± 0.52.
In the case of CUAGAGCAAUAUUACGGAAA, for the setting “37 °C”, the “self-splicing fitness (ln)” value is -2.03 ± 1.1.
Still for that read-out and setting: the result for UUUCAGCAAUAUUACGACCC reads -0.704 ± 0.73.
As to CGCCAGCAAUAUUACGCCAU, under “30 °C”, the “self-splicing fitness (ln)” value is -5.72 ± 0.71.
Turning to GGGUAGCAAUAUUACGGUCC, for the setting “37 °C”, the “self-splicing fitness (ln)” value was -0.66 ± 0.5.
Regarding AAGGAGCAAUAUUACGUGUC, the “self-splicing fitness (ln)” value (30 °C) is -4.89 ± 0.51.
GCUAAGCAAUAUUACGACGA: the “self-splicing fitness (ln)” value (30 °C) is -0.978 ± 0.088 and the “self-splicing fitness (ln)” value (37 °C) is -0.529 ± 0.1.
Take UAGCAGCAAUAUUACGCCGC: the “self-splicing fitness (ln)” value was -2.36 ± 0.57 (30 °C) and -2.76 ± 1.1 (37 °C).
On to UACGAGCAAUAUUACGUCGU, for which the “self-splicing fitness (ln)” value (37 °C) was -3.49 ± 1.
Turning to AAGCAGCAAUAUUACGGAAC, the “self-splicing fitness (ln)” value is -3.6 ± 0.3 (30 °C) and -3.32 ± 0.6 (37 °C).
With UAGCAGCAAUAUUACGAUCC, the “self-splicing fitness (ln)” value reads like this: (30 °C) -2.34 ± 0.8; (37 °C) -1.69 ± 1.2.
On to AGGCAGCAAUAUUACGGCCC, for which the “self-splicing fitness (ln)” value by setting is: (30 °C) -2.44 ± 0.55; (37 °C) -1.38 ± 0.69.
Regarding UCGAAGCAAUAUUACGGUGC, the “self-splicing fitness (ln)” value (37 °C) was -2.08 ± 0.51.
Turning to AGUGAGCAAUAUUACGCGGC, the “self-splicing fitness (ln)” value (37 °C) is -3.52 ± 0.52.
Turning to CUUAAGCAAUAUUACGGGCC, the “self-splicing fitness (ln)” value by setting is: (30 °C) -3.29 ± 0.76; (37 °C) -2.57 ± 0.77.
In the case of GCGGAGCAAUAUUACGCCUU, the “self-splicing fitness (ln)” value (30 °C) was -0.631 ± 1.2.
In the case of CUAUAGCAAUAUUACGCAGG, the “self-splicing fitness (ln)” value (37 °C) is -2.71 ± 0.54.
Consider UCUUAGCAAUAUUACGGUCU, for which the “self-splicing fitness (ln)” value runs as follows: (30 °C) -4.42 ± 0.42; (37 °C) -2.67 ± 0.32.
As to AUGUAGCAAUAUUACGUCUC, under “30 °C”, the “self-splicing fitness (ln)” value was -4.19 ± 0.59.
Consider GGGGAGCAAUAUUACGCGCU, for which the “self-splicing fitness (ln)” value is -3.48 ± 1.1 (30 °C) and -2.63 ± 0.63 (37 °C).
With UUAGAGCAAUAUUACGGAUA, the “self-splicing fitness (ln)” value (37 °C) was -2.65 ± 0.63.
As to AUUGAGCAAUAUUACGGGUA, the “self-splicing fitness (ln)” value (30 °C) is -4.18 ± 0.51.
Turning to AUGGAGCAAUAUUACGUACC, the “self-splicing fitness (ln)” value (37 °C) was -1.89 ± 0.81.
On to UAAGAGCAAUAUUACGGCAC, for which the “self-splicing fitness (ln)” value (30 °C) is -2.31 ± 0.51 and the “self-splicing fitness (ln)” value (37 °C) was -1.16 ± 0.48.
Consider AAAUAGCAAUAUUACGAGAA, for which the “self-splicing fitness (ln)” value (30 °C) is -2.43 ± 0.71.
With CUUGAGCAAUAUUACGUAUU, under “30 °C”, the “self-splicing fitness (ln)” value is -4.21 ± 0.73.
